The experiment has as its target ABX Nab (commercial ABRAXANE, albumin-bound paclitaxel nanoparticles) (human) (UniProt P02768). As to the kind of experiment: zeta potential (Zetasizer), ABX:STI3031 NIC against ABX Nab.

Chains of the proteins cited; added tags and fusions are not shown. Residues count along the entry.
UniProt P02768, residues 25-609: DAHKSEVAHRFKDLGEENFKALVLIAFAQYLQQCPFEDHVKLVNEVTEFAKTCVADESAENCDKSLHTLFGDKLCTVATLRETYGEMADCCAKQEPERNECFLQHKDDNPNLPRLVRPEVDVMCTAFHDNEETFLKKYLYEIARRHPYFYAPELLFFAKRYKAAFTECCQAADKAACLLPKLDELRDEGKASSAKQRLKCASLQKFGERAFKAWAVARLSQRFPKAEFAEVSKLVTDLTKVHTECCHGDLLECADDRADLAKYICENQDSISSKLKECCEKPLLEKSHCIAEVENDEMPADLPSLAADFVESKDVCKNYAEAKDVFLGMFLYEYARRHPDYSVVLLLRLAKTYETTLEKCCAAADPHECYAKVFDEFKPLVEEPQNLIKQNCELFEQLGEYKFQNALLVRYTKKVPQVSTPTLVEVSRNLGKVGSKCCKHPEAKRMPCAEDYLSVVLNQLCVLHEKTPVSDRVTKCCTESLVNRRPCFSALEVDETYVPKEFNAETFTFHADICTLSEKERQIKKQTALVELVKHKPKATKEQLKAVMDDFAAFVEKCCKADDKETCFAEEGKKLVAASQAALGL

Results are given in words; binding and its absence hold for the method and conditions named. Some entries that bind do so weakly or less than the wild type.

B1: anti-PDL1 H6B1L-EM antibody (STI3031) (antibody, human IgG1, lambda, V domains shown)
VH: QMQLVQSGAEVKKPGSSVKVSCKASGGTFSSYAYSWVRQAPGQGLEWMGGIIPSFGTANYAQKFQGRVTITADESTSTAYMELSSLRSEDTAVYYCARGPIVATITPLDYWGQGTLVTVSS
VL: SYVLTQPPSVSVAPGKTATIACGGENIGRKTVHWYQQKPGQAPVLVIYYDSDRPSGIPERFSGSNSGNTATLTISRVEAGDEADYYCLVWDSSSDHRIFGGGTKLTVLG
notes: also called PDL1 antibody
Turning to B1, the binding result was “binds”.

The record behind these values is patent US20230338574A1, “ANTIBODY-NANOPARTICLE COMPLEXES AND METHODS FOR MAKING AND USING THE SAME” (priority 2020, published 2023).
